# PubChem BioAssay AID540256 (National Center for Advancing Translational Sciences (NCATS), 2011)
# The campaign covered roughly 300,000 compounds. About 3,700 (1.2%) were called active. The shares of active, inactive and inconclusive entries below differ from those in the screen. Calls come from the whole dose curve; tested in HEK293 cells. Potencies beside an inconclusive call are fits to weak or partial responses and may not hold up.
# Experiment: qHTS for Inhibitors of binding or entry into cells for Lassa Virus; note: nearly all actives have a fitted effect of over 50% in size
# Settings: Lassa virus pseudotype entry inhibition, cell reporter; activity change, negative = inhibition: at 37.9 µM (top of the series) unless noted
# % is set by controls: 0 for no effect and ±100 for the full control effect; potency is the fitted concentration of half-maximal effect.
SMILES,Potency,"activity change, negative = inhibition"
Fc1ccc(C(OCCN2CCCC2)c2ccc(Br)cc2)cc1 (centres undefined),"inconclusive: 32.6 µM [inhibitor, single point]",–
COc1ccc(CCC(C)Nc2ccc(F)cc2)cc1 (centres undefined),"inconclusive: 23.1 µM [inhibitor, single point]",–
CCCCCCOC(=O)C(C#N)c1nc2ccccc2nc1N1CCN(CC)CC1 (centres undefined),"inconclusive: 8.2 µM [inhibitor, single point]",–
Cc1oc(-c2cccc(Cl)c2)nc1Cn1c(SCc2ccc(F)cc2)nc2cccnc21,–,inactive: 17.3% [at 46.1 µM]
COCCn1c(SCc2nc3scc(-c4ccc(Cl)cc4)c3c(=O)[nH]2)nnc1-c1cccc(C)c1,–,inactive: -25.3%
Cc1cccc(N2CCn3c2nc2c3c(=O)n(CCCc3ccccc3)c(=O)n2C)c1,–,inactive: 19.2% [at 46.1 µM]
O=C(COc1ccccc1Cl)c1ccc[nH]1,"inconclusive: 8.2 µM [activator, partial curve]",–
COc1cc2c(cc1OC)[C@@H]1O[C@](CCCCN3C(=O)c4ccccc4C3=O)(C2)OC2=C1C(=O)CCC2,"inconclusive: 0.75 µM [inhibitor, single point]",–
O=C(CCNS(=O)(=O)c1ccc2[nH]c(=O)oc2c1)NCc1ccc(F)cc1,–,inactive: 2.73% [at 46.1 µM]
CCC(Nc1ccc(-c2nc(-c3ccccn3)no2)cc1[N+](=O)[O-])c1ccccc1 (centres undefined),–,inactive: -0.68% [at 46.1 µM]
COc1ccc(/C(C)=N/NC(=O)c2ccccc2N)cc1,–,inactive: 3.33% [at 46.1 µM]
COc1ccc(CC(=O)Nc2ccc(S(=O)(=O)N3CCCCC3)cc2)cc1OC,"inconclusive: 10 µM [inhibitor, partial curve, poor fit]",–
CCCCN(C)C(=O)CCC(=O)NNc1nc2ccccc2c2nc(C)nn12,"inconclusive: 3.16 µM [activator, partial curve, poor fit]",–
CC(C)Cc1ccc(C(C)C(N)=Nc2ccc(O)cc2)cc1 (centres undefined),"inconclusive: 25.1 µM [inhibitor, single point]",–
O=C(c1ccco1)N1CCN(C/C=C/c2ccccc2)CC1,–,inactive: 18.7%
CCCN1CCN(c2nnc(-n3cccc3C(=O)Nc3ccccc3C(F)(F)F)s2)CC1,"inconclusive: 22.4 µM [activator, single point]",–
COC(=O)Cn1c(CCS(=O)(=O)c2ccc(C)cc2)nc2ccccc21,"inconclusive: 0.164 µM [inhibitor, partial curve, poor fit]",–
Cc1ccc2nc(NC(=O)c3ccco3)sc2c1,active: 1 µM,–
CCc1ccc(N2C(=O)NC(=O)C(CCc3ccncc3)(CCc3ccncc3)C2=O)cc1,"inconclusive: 7.08 µM [inhibitor, partial curve]",–
CC1=NN(Cc2ccccc2)C(=O)C1C(c1ccc(Cl)cc1)C(C#N)C#N (centres undefined),"inconclusive: 9.2 µM [inhibitor, partial curve]",–
CC(C)OC(=O)c1sc2nc3c(cc2c1N)C(=O)CCC3,"inconclusive: 13 µM [activator, partial curve]",–
C/C(=N\NC(=O)C1CC1(C)c1ccccc1)c1ccco1 (centres undefined),"inconclusive: 32.6 µM [inhibitor, partial curve, poor fit]",–

# Of the compounds above, these contain an NH in an aromatic ring:
SMILES,Potency,"activity change, negative = inhibition"
COCCn1c(SCc2nc3scc(-c4ccc(Cl)cc4)c3c(=O)[nH]2)nnc1-c1cccc(C)c1,–,inactive: -25.3%
O=C(COc1ccccc1Cl)c1ccc[nH]1,"inconclusive: 8.2 µM [activator, partial curve]",–
O=C(CCNS(=O)(=O)c1ccc2[nH]c(=O)oc2c1)NCc1ccc(F)cc1,–,inactive: 2.73% [at 46.1 µM]

# Continued:

SMILES,Potency,"activity change, negative = inhibition"
CN=C1c2c(-c3ccccc3)c3cc(OC)ccc3n2CCN1C,"inconclusive: 15.8 µM [inhibitor, single point]",–
COc1ccc(C(=O)NCCc2ccccc2F)cc1OC1CCN(C(C)=O)CC1,"inconclusive: 3.16 µM [activator, single point]",–
Oc1c(Br)cc(Br)cc1C=NCc1ccc(F)cc1,"inconclusive: 11.2 µM [inhibitor, partial curve, poor fit]",–
COc1ccc(NC(=O)CN2CCCC2)cc1,"inconclusive: 25.1 µM [inhibitor, single point]",–
O=C(CN1C(=O)c2ccccc2S1(=O)=O)NC1CCCC1,–,inactive: 19.9%
COC(=O)c1ccccc1S(=O)(=O)NNC(=O)Nc1ccccc1,"inconclusive: 10 µM [inhibitor, partial curve, poor fit]",–
COCCN(C(=O)c1cccc(N2C(=O)CCC2=O)c1)c1nc(-c2ccc([N+](=O)[O-])cc2)cs1,"inconclusive: 17.8 µM [inhibitor, single point]",–
Cc1cc(C(=O)N/N=C/c2cc(Br)cc(Br)c2OC(=O)c2ccccc2)n[nH]1,"inconclusive: 7.31 µM [inhibitor, single point]",–
O=C(Nc1ccc([N+](=O)[O-])cn1)C1CC1,"inconclusive: 25.1 µM [activator, single point]",–
COCCn1c(=NC(=O)c2ccc(S(=O)(=O)N3CCCc4ccccc43)cc2)sc2cc(S(C)(=O)=O)ccc21,"inconclusive: 29.1 µM [activator, single point]",–
CSc1ccc(C2c3c(-c4ccccc4O)n[nH]c3C(=O)N2Cc2ccncc2)cc1 (centres undefined),"inconclusive: 2.82 µM [inhibitor, partial curve, poor fit]",–
CCCCNC(=O)CNC(=O)c1cccs1,–,inactive: 6.27%
CCN(CC)C(=O)c1c([N+](=O)[O-])c(C(C)(C)C)nn1C,"inconclusive: 0.891 µM [activator, partial curve]",–
CCC(=NCCc1c(C)[nH]c2ccc(OC(F)(F)F)cc12)C1=C(O)CC(c2ccccc2)CC1=O (centres undefined),"inconclusive: 11.2 µM [inhibitor, partial curve]",–
Cc1cccc(NC(=S)N2CCC(C(=O)c3ccc(F)cc3)CC2)c1,–,inactive: 1.61% [at 46.1 µM]
CC(=O)Nc1ccc(-c2csc(Nc3cc(C)ccn3)n2)cc1,"inconclusive: 35.5 µM [inhibitor, single point]",–
CCCCn1cc2c(c1-c1ccc(Br)cc1)c(=O)n(C)c(=O)n2C,–,inactive: -0.647% [at 46.1 µM]
NC(=O)c1cn(C2OC(CO)C(O)C2O)c2ncnc(N)c12 (centres undefined),active: 0.291 µM,–
CCc1cccc(NC(=O)C2CCCN(c3ncnc4c3nc3n4CCCCC3)C2)c1 (centres undefined),"inconclusive: 11.2 µM [inhibitor, partial curve, poor fit]",–
CCCCn1c(CCn2nc(C)c(Br)c2C)n[nH]c1=S,–,inactive: -2.45%
O=C(CCc1c[nH]c2ccccc12)NCCc1ccc(Cl)cc1,"inconclusive: 20 µM [inhibitor, single point]",–
Cc1cccc2c(=O)cc(CSc3ccccc3NC(=O)c3cccc(Cl)c3)[nH]c12,–,inactive: -17.1% [at 46.1 µM]
